Negatives hold for the conditions tested. Tags and fusion partners may be left off the protein sequences shown.
Tested on: T1, BysR (Burkholderia sp. JP2-270)
T1 sequence (looked up): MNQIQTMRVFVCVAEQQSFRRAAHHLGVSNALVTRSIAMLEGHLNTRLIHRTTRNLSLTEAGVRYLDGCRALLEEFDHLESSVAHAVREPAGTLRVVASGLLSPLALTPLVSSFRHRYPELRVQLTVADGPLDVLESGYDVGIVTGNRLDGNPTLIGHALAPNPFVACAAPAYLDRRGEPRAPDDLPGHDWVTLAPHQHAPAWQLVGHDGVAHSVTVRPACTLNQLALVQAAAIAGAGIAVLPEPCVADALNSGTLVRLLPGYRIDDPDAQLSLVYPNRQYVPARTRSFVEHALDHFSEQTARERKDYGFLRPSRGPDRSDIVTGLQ
Test: EMSA
Details: residues 1-327; probe letters rebuilt from the primers and the genome

Sequence	binding result
CAGTTCCGGCCTTCAGTGCATTCGGCGGCAGCACGTTTTCACCCAGCAACGCTCAATGACTGAAATGGACGTTTCAGCTTCTTGCAGGGGCATTGGTAACGATCGCCACTCAATGCGACCGCGGCTTGGCCGCCGCCGTCGTCCCCGCACGCGGTTTCGCATCGAACTGAACAGAGGAGCACGGCGCGCCGCCGTTTCGCGCGAGCCGAACACATCGGCGCGTGCAATGCGAGAACGCGCGACGAAACGCGCGCCGCGCAAACCGCGCCGGCTCGCCCGCGCTGGCGTTGCGCCGCCGTCCTCAAGCACGCACAACAAGGAAACAAGGAG (double strand) [ambR1 promoter probe 2]	no binding
CCTCTGTTCAGTTCGATGCGAAACCGCGTGCGGGGACGACGGCGGCGGCCAAGCCGCGGTCGCATTGAGTGGCGATCGTTACCAATGCCCCTGCAAGAAGCTGAAACGTCCATTTCAGTCATTGAGCGTTGCTGGGTGAAAACGTGCTGCCGCCGAATGCACTGAAGGCCGGAACTGGAAAACCCGGCACCGGCCCGGAGCGGGCACGTTCCCGGCGGATTCAACGAAAAAATCACGATGAAAAAATGAAACTATCCTTTCCATTGAATTTTATCCACGAATACCCCAGCCGCGTATGATAGCGGCGATTTAAAATATCTGCATTTATCCTGTAATTAGTTTTTTAGCCACGCCGCTTGCAGACCAAAAATCAACAAATCTGCAAGCCGTTCACGAACAAAATTCTGGCAGGCCAGATAAATCTGGCCTTTGTTTACCACGAAATTTTGTAATAGTCACCCGAGCACCGCATACCATGGATTTTCGTCCAAGAGGCCTTATTCGAGAGAAGAATCGGCGATTTTCATCACGTC (double strand) [ambR1 promoter probe 3]	binds

— paper doi:10.1101/2022.07.06.499086
